# Measured values reported in doi:10.1101/2023.12.18.572241.
# Chains of the proteins cited; added tags and fusions are not shown. Lines headed by an entry give the natural chain unless they say otherwise; changes in a name come on top. A line that says so, or that is headed by a name, gives the form on record, which may keep a tag or linker.
# human ghrelin receptor (spFLAG-GHSR1a) (Q92847, form named): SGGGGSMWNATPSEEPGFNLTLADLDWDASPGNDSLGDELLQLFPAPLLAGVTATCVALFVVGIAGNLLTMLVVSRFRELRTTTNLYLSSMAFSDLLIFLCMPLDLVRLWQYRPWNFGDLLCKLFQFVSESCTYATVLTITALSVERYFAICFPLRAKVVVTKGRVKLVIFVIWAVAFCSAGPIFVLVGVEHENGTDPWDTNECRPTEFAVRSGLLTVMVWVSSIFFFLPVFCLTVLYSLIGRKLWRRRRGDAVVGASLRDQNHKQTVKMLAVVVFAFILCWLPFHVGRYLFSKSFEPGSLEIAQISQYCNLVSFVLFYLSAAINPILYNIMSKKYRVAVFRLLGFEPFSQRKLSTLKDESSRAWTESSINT
# human dopamine D2 receptor, long isoform (spcMyc-DRD2) (P14416, form named): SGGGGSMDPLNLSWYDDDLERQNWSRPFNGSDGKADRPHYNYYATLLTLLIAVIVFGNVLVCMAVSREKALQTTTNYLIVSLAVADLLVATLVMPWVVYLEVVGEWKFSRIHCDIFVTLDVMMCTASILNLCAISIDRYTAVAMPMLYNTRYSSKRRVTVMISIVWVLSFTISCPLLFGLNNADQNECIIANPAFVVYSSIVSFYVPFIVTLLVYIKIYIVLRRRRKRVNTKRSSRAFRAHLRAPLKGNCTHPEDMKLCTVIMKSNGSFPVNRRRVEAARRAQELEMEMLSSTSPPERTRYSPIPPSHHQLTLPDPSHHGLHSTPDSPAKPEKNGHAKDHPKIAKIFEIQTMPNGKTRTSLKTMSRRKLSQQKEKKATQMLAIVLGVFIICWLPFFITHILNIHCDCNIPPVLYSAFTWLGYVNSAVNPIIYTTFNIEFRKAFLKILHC
# Results are given in words; binding and its absence hold for the method and conditions named.
# Target: human ghrelin receptor (spFLAG-GHSR1a) (human) (UniProt Q92847)
# Test: STORM super-resolution microscopy, nearest neighbor distance
substance,measurement,value
"human dopamine D2 receptor, long isoform (spcMyc-DRD2) (from UniProt P14416 1-443)",binding,no binding
